At least one structure is not confirmed: it was looked up by name or label, or the drawing left a doubt.
What was measured:
[1] = biological target: benzodiazepine receptor; experiment: In vitro pharmacodynamics: binding with the benzodiazepine receptor
[2] = system: benzodiazepine receptor; conditions: S-isomer versus R-isomer of zopiclone; cited from earlier work

For CN1CCN(C(=O)O[C@H]2c3nccnc3C(=O)N2c2ccc(Cl)cn2)CC1 [S-zopiclone, (+)-(S)-(4-methylpiperazine-1-carboxylate)(6-(5-chloropyridinyl-2-yl)-7-carbonyl-6,7-dihydro-5-H-pyrrolo[3,4-b]pyrazin-5-yl ester)], the IC50 [1] is given as 21 ± 3 nM and the “binding affinity to the benzodiazepine receptor, fold higher than R-isomer” value [2] is given as “approximately 50 fold”.
